Results deposited as PubChem BioAssay AID686938 (Drosophila RNAi Screening Center, 2013).

Screen: 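Knock-downs reducing store-operated calcium influx in Drosophila cells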 (primary screen)
System: Drosophila S2R+ cells
Reagent: long dsRNA against Drosophila genes, about 0.25 µg dsRNA per well, roughly 10,000 cells
Time to read-out: 5 days of knock-down before the calcium assay
Treatment: thapsigargin (SERCA pump blocker) to empty calcium stores; entry signal taken 4 min after adding it
Detection: 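Duplicate raw fluo-4 intensities per well from a plate reader, at rest and four minutes after thapsigargin emptied calcium stores; entry-to-rest ratio filled for only some wells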
Reading the numbers: calcium entry signal: higher = stronger calcium signal after store depletion; resting calcium signal: higher = higher resting calcium signal
Units: calcium entry signal in fluorescence units; resting calcium signal in fluorescence units
Call rule: 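Called when the plate z-score of the entry-to-rest ratio, mean of duplicates, falls below −3; wells with low overall dye signal (Fmax z below −2) or more than five off-targets excluded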
Meaning of the calls: active = strongly reduced calcium entry; inactive = no strong reduction
In all, the deposit lists about 23,000 reagents; below is an unselected part of those with a known target gene and a result. In the full data, 75 (0.33%) got an active call. 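Raw plate signals without normalisation; calls rest on plate z-scores that were not deposited; ratio present for only 364 wells.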 Not given: the dose of the treatment.

With CG5592 [DRSC10524], what was measured?
calcium entry signal, replicate 1: 1.73e7; calcium entry signal, replicate 2: 4.82e7; resting calcium signal, replicate 1: 8.32e6; resting calcium signal, replicate 2: 1.89e7; Call: inactive

How did the screen score Orai [DRSC05684]?
calcium entry signal, replicate 1: 3.58e7; calcium entry signal, replicate 2: 3.03e7; resting calcium signal, replicate 1: 1.75e7; resting calcium signal, replicate 2: 1.73e7; Call: inactive

What did the screen give for Orai [DRSC22061]?
calcium entry signal, replicate 1: 2.10e7; calcium entry signal, replicate 2: 2.73e7; resting calcium signal, replicate 1: 1.64e7; resting calcium signal, replicate 2: 2.06e7; Call: active

With CG1552 [DRSC19665], how do the results read?
calcium entry signal, replicate 1: 4.12e7; calcium entry signal, replicate 2: 5.22e7; resting calcium signal, replicate 1: 1.90e7; resting calcium signal, replicate 2: 2.46e7; Call: inactive

With U2af50 [DRSC20297], how do the results read?
calcium entry signal, replicate 1: 2.33e7; calcium entry signal, replicate 2: 2.18e7; resting calcium signal, replicate 1: 1.43e7; resting calcium signal, replicate 2: 1.44e7; Call: inactive

What is on record for U2af50 [DRSC22867]?
calcium entry signal, replicate 1: 1.38e7; calcium entry signal, replicate 2: 2.19e7; resting calcium signal, replicate 1: 8.57e6; resting calcium signal, replicate 2: 1.19e7; Call: inactive

For Lamtor4 [DRSC08436], what does the deposit list?
calcium entry signal, replicate 1: 3.68e7; calcium entry signal, replicate 2: 4.39e7; resting calcium signal, replicate 1: 1.91e7; resting calcium signal, replicate 2: 1.96e7; Call: inactive

For CG4213 [DRSC00641], what was measured?
calcium entry signal, replicate 1: 4.20e7; calcium entry signal, replicate 2: 4.38e7; resting calcium signal, replicate 1: 2.06e7; resting calcium signal, replicate 2: 1.88e7; Call: inactive

Hits, among the entries above:
Orai [DRSC22061] — calcium entry signal, replicate 1 = 2.10e7; calcium entry signal, replicate 2 = 2.73e7; resting calcium signal, replicate 1 = 1.64e7; resting calcium signal, replicate 2 = 2.06e7; Call = active

Continued:
For ALiX [DRSC14564], what does the deposit list?
calcium entry signal, replicate 1: 3.26e7; calcium entry signal, replicate 2: 4.70e7; resting calcium signal, replicate 1: 1.68e7; resting calcium signal, replicate 2: 1.99e7; Call: inactive

For Nha2 [DRSC14689], what was measured?
calcium entry signal, replicate 1: 5.70e7; calcium entry signal, replicate 2: 6.34e7; resting calcium signal, replicate 1: 2.78e7; resting calcium signal, replicate 2: 2.78e7; Call: inactive

What did the screen give for Nha2 [DRSC15619]?
calcium entry signal, replicate 1: 5.89e7; calcium entry signal, replicate 2: 4.64e7; resting calcium signal, replicate 1: 3.20e7; resting calcium signal, replicate 2: 2.30e7; Call: inactive

Which result is listed for Nha2 [DRSC15623]?
calcium entry signal, replicate 1: 5.90e7; calcium entry signal, replicate 2: 6.73e7; resting calcium signal, replicate 1: 2.75e7; resting calcium signal, replicate 2: 2.70e7; Call: inactive

With CG31087 [DRSC14253], how do the results read?
calcium entry signal, replicate 1: 3.47e7; calcium entry signal, replicate 2: 8.80e7; resting calcium signal, replicate 1: 1.84e7; resting calcium signal, replicate 2: 3.21e7; Call: inactive

With E23 [DRSC00425], what does the deposit list?
calcium entry signal, replicate 1: 1.79e7; calcium entry signal, replicate 2: 2.13e7; resting calcium signal, replicate 1: 1.14e7; resting calcium signal, replicate 2: 1.30e7; Call: inactive

What did the screen give for E23 [DRSC00593]?
calcium entry signal, replicate 1: 2.41e7; calcium entry signal, replicate 2: 2.84e7; resting calcium signal, replicate 1: 1.22e7; resting calcium signal, replicate 2: 1.34e7; Call: inactive
